According to patent US20170283457A1 (YEDA RESEARCH AND DEVELOPMENT, published 2017):
These are yes or no findings as the source states them, for the method shown. For part of these data: Binding seen in cells or lysates may run through a third protein. Some entries that bind do so weakly or less than the wild type.

Sequences of proteins named here, by UniProt entry; tags and fusion partners are left off. Residues count along the entry.
UniProt O95373: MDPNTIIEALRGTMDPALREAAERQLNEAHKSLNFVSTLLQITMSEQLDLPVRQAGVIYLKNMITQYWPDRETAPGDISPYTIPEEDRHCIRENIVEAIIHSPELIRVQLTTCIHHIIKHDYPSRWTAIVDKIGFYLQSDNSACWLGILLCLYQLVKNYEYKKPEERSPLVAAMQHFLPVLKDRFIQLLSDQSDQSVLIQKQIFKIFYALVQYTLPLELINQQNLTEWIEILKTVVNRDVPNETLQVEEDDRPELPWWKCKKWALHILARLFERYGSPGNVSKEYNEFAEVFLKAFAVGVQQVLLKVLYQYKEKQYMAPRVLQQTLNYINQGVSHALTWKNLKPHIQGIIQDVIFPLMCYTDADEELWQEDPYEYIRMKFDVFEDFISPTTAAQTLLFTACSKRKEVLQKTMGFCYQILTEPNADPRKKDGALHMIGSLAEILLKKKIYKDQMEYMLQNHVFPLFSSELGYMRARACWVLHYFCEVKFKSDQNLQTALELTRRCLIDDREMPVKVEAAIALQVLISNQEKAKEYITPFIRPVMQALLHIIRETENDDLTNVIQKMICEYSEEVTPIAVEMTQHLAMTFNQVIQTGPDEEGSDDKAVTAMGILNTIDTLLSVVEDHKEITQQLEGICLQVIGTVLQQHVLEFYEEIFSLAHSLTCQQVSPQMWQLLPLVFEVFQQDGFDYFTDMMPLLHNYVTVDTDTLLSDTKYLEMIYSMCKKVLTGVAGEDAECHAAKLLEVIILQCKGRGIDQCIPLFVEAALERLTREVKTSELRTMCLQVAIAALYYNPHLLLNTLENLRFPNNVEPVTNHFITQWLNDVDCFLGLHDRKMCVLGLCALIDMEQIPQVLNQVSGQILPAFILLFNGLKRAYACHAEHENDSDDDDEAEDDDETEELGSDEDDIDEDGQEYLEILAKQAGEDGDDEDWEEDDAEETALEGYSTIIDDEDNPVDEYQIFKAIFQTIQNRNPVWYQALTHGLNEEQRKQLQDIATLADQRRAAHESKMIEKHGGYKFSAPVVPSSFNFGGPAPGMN
UniProt Q96P70, residues 2-1041: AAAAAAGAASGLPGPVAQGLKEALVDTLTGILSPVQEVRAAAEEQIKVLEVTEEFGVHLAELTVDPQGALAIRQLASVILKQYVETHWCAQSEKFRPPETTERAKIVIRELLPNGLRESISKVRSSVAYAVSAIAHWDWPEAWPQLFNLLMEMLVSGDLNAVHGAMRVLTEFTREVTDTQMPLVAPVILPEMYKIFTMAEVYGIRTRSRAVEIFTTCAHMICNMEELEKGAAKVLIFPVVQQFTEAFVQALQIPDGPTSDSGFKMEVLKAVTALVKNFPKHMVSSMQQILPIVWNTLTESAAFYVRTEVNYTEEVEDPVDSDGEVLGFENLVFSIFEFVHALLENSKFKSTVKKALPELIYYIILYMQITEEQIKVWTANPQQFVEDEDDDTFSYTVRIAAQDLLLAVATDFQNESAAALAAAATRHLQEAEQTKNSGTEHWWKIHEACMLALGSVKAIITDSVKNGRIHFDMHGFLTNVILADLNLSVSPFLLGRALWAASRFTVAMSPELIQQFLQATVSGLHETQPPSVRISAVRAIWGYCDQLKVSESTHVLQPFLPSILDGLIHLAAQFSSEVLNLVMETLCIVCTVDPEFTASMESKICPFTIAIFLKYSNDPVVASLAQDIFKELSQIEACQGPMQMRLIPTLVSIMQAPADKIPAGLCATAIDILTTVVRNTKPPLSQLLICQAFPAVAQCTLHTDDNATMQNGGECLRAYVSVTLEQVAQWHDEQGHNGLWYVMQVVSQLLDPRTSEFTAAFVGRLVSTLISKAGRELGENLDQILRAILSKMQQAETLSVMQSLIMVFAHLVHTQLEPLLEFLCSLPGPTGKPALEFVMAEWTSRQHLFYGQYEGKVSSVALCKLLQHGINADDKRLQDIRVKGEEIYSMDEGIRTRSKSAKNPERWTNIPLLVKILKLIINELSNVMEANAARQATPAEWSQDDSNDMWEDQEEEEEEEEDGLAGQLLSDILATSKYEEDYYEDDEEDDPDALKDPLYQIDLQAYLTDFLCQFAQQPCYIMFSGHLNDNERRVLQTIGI
UniProt P45983: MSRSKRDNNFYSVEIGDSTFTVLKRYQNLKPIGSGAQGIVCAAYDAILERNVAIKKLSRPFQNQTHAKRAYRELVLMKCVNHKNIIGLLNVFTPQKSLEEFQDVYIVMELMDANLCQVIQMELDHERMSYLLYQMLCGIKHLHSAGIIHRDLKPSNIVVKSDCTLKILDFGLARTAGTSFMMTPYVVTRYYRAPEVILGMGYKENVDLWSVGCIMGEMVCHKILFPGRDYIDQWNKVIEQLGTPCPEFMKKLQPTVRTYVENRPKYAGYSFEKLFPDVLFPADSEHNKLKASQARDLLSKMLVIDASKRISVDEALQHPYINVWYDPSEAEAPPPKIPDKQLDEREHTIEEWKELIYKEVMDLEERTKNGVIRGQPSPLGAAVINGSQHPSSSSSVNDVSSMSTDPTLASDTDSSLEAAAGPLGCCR

Key:
Importin7 [1] = target: T1, Importin7 (UniProt O95373 1-1038); experiment: in vitro interaction: GST-MAPK (500 ng) with Imp IPed from HeLa cells, Western blot
T1 construct: Endogenous protein; also called Imp7; RANBP7

Importin9 [2] = target: T2, Importin9 (UniProt Q96P70 2-1041); experiment: as above
T2 construct: Endogenous protein; also called Imp9; IMB5

Importin7 [3] = target: T1, Importin7; experiment: in vitro interaction: GST-MAPK with Imp IPed from stimulated HeLa cells, Western blot
Description: (§1) FIGS. 3A-3B illustrate that JNK1/2 and p38α/β directly interact with either Imp7 or Imp9 but not with Imp3. (A) In vitro interaction of JNK1/2 and p38α/β with Imp3/7/9. Purified Imp3/7/9 were prepared by IP as follows: HeLa cells were grown to 70% confluence, serum starved, and then were either stimulated with Anisomycin (Anis 0.5 μg/ml, 15 min), TPA (250 nM, 15 min) or left untreated (NT). Imp3/7/9 were then IPed from the cell's extracts and extensively washed, twice with RIPA buffer and once with 0.5M LiCl. The indicated GST-MAPKs were prepared from bacteria as described under Materials and methods. To examine association, 500 ng of each GST-MAPK were incubated with 20 μl of the indicated IPed Imps in PBS (2 hrs, 4° C., with rotation). The beads were then washed with washing buffer containing 150 mM NaCl, and interacting MAPKs were detected using Western blot analysis with the indicated Abs. (B) Imp3 is not required for Imp7/9 interactions with JNK1/2 and p38α/β. HeLa cells were treated with Si RNAs of Imp3 according to the manufacturer instructions. Forty eight hrs after transfection, the cells were serum starved, and then stimulated with Anisomycin (Anis 0.5 μg/ml) or TPA (TPA 250 ng) or left untreated (NT). Cell extracts were then subjected to Co-IP with anti Imp7 or Imp9, the interacting MAPKs were detected by Western blot with the indicated Abs. Amount of IPed Imps was detected by the indicated Abs.

Importin9 [4] = target: T2, Importin9; experiment: as above
Description: as §1

Importin7 [5] = target: T1, Importin7; experiment: Co-IP of overexpressed GFP-tagged MAPK in HeLa cells
Importin9 [6] = target: T2, Importin9; experiment: as above
Importin7 [7] = target: T1, Importin7; experiment: Co-IP with anti GFP Abs, transfected HeLa cells
Description: (§2) FIGS. 10A-10B illustrate that endogenous and overexpressed JNK1/2 and p38α/β CoIP with Imp3, 7 and 9. (A) A Co-IP screen to detect the importins interacting with JNK1/2 and p38α/β in MCF7 cells. MCF7 cells were grown on slides to 70% confluence, serums starved and then were either stimulated with Anisomycin (Anis 0.5 μg/ml, 15 min), TPA (250 nM, 15 min) or left untreated (NT). Cells extracts were then subjected to Co-IP with anti JNK1, JNK2, p38α, or p38β, and rabbit IgG as a negative control (Control). The interacting Imps or the IPed MAPKs were detected by Western blot with the indicated Imps or MAPK Abs. (B) Interaction of overexpressed MAPKs in HeLa cells. HeLa cells were transfected with either JNK2-GFP (wt-JNK2), p38ββ-GFP (wt-p38β) or GFP alone. Cells were serum starved, and then treated with Anisomycin (Anis 0.5 μg/ml, 15 min), TPA (250 nM, 15 min). Cells extracts were then subjected to a CoIP with anti GFP Abs. The interacting Imps and the loading extracts were detected using Western blot analysis with the indicated (left) Abs. The blots were developed with either NBT/BCIP or ECL. Arrows indicate interacting Imps.

Importin9 [8] = target: T2, Importin9; experiment: Co-IP with anti GFP Abs, transfected HeLa cells
Description: as §2

Measured: binding

GST-JNK1 (from UniProt P45983 1-427) (enzyme)
binds: Importin7 [1] | Importin9 [2] | Importin7 [3] | Importin9 [4]

GST-JNK2 (from UniProt P45984 1-424) (enzyme)
binds: Importin7 [1] | Importin9 [2] | Importin7 [3] | Importin9 [4]

JNK2-GFP (from UniProt P45984 1-424) (enzyme)
binds: Importin7 [5] | Importin9 [6] | Importin7 [7] | Importin9 [8]
